Test system: CD1 mice, controlled cortical impact (CCI) or sham craniotomy
Assay: Brain water content (brain edema, wet-to-dry ratio)
Assay type: in vivo
Details: 48 hours
Description: Procedures received approval from the University of Pennsylvania Institutional Animal Care and Use Committee. CD1 adult male mice (25-30 g) (Charles River Laboratories; Wilmington, Mass.) were acclimated in standard housing with ad libitum water and chow for 5 days before experiments and immediately after recovery from brain injury. Mice underwent controlled cortical impact (CCI) or sham craniotomy (SHAM) and then received one of three agents: 1) subcutaneous enoxaparin (ENX, 1.5 mg/kg) (Winthrop, Sanofi-Aventis; Bridgewater, N.J.); intravenous (femoral vein) pharmaceutical grade antithrombin-III (AT-III, 250 IU/kg, donated by Grifols S.A. (Durham, N.C.); or 3) an equal volume of IV normal saline (0.9% NS, Baxter; Deerfield, Ill.). Doses were administered 0.5 and 24 hours after the CCI (FIG. 1).
Seventy-one (71) mice were randomly assigned to one of six groups: 1) sham craniotomy and vehicle (VH, 0.9% normal saline, Baxter Healthcare Corporation; Deerfield, Ill.), (SHAM +VEH, n=9); 2) sham craniotomy and ENX (SHAM+ENX, n=8); 3) sham craniotomy and AT-III (SHAM+AT-III, n=9); 4) TBI and vehicle (CCI+VEH, n=19); TBI and ENX (CCI+ENX, n=13); and 6) TBI and AT-III (CCI+AT-III, n=13).
CCI was used to replicate TBI through a well-validated rodent model (16, 17). Briefly, on day 1, mice were anesthetized with intraperitoneal ketamine (Hospira; Lake Forest, Ill.), xylazine (Alcorn; Decatur, Ill.), and acepromazine (Boehringer Ingelheim; St. Joseph, Mo.) (KXA: 100, 10, 1 mg/kg, respectively) and place prone in a stereotactic device. After scalp exposure, a left-sided 4-mm craniotomy was created between bregma and lambda structures using a dental drill (Henry Schein; Melville, N.Y.) without violating the dura.
Forty-eight hours after CCI, mice were sacrificed and excised brains were separated into injured (ipsilateral) and uninjured (contralateral) hemispheres. Wet weight (WW) was immediately assessed. Dry weight (DW) was assessed after 72 hours of dehydration at 70° C. Tissue water content was calculated using wet-to-dry ratios: % water content=100×(WW−DW)/WW.

Substance	Contralateral (%) Mean brain water content [%]	Contralateral (%) Median brain water content [%]	Ipsilateral (%) Mean brain water content [%]	Ipsilateral (%) Median brain water content [%]	Ratio (ipsi/contra) brain water content
antithrombin-III [AT-III]	77.78	77.84	77.67	77.69	0.998
enoxaparin [ENX, reference compound]	77.5164	77.68	77.4716	77.7	0.999
